Laboratory results from US7060290B1, “Phosphocholine linked prodrug derivatives” (Supergen, Inc., priority 1999, dated 2006).
At least one compound was matched to its structure with a doubt left.

Test system: cutaneous hypersensitivity immune response
Experiment: DNCB-induced cutaneous contact hypersensitivity (ear swelling) in mice
Assay type: in vivo, mice (Balb/c)
Conditions: 100 μg/day/mouse subcutaneously, twelve-day study; ear rechallenge with 1% DNCB, swelling on days 7–12
Description: The effects of DHEA-PC on cutaneous contact hypersensitivity was studied. In this study, mice (Balb/c) were immunologically challenged with DNCB (2% in ethanol) applied to a 2 cm area on the back. The steroid was injected subcutaneously (100 μg/day/mouse) throughout the twelve-day study period. Ears were rechallenged with DNCB (1% in ethanol) on days 7–12 and swelling was measured daily in order to evaluate the effect on the immune system.

C[C@@H]1C[C@H]2[C@@H]3CCC4=CC(=O)C=C[C@]4(C)[C@@]3(F)[C@@H](O)C[C@]2(C)[C@@]1(O)C(=O)CO [dexamethasone]
Effect on DNCB-induced cutaneous hypersensitivity immune response: suppressed the immune response below the control
